The record followed here is PubChem BioAssay AID1347423 (Functional Genomics Laboratory (NCATS/FGL), 2020).

Out of some 52,000 sequences screened, about 210 (0.4%) were called active.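 Rule for the calls: active = gene whose silencing raises cell survival under the drug, median off-target-corrected z-score across its silencing RNAs 2 or more; inactive = the rest.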 The list shows a part of the results.

This test in a line: Resistance to Poly (ADP-Ribose) Polymerase inhibitor: Gene Identification via Genome-wide siRNA Screen. The following applies: mouse BRCA2 R2336H ES cells, olaparib, CellTiter-Glo viability; hits give high values. In short, it runs like this:
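Genome-wide siRNA screen (3 siRNAs/gene, 20 nM) in mouse ES cells carrying hypomorphic BRCA2 R2336H; olaparib 500 nM added 48 h post-transfection, CellTiter-Glo viability 72 h later. Normalized to plate-median negative control; MAD z-scores, gene median, seed-adjusted.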
In the case of GCCAGUCAUCUUUGUAGUCTT against Olfr411, the z-score was inactive: -0.727.
The figure for “CCAAAGAUACCAUUUUGCATT against 2210415F13Rik” is inactive: 0.57; for GGAAGAAGUUCAAGAUUGATT against Bap1 it is inactive: -2.94; for CGGCUCUUUCUUGUGGAUATT against Ggta1 it is inactive: 0.188.
With “GGGAGUGCCAAAGUCGAAUTT against D16Ertd472e”, the z-score was inactive: -0.299.
The figure for “GGUGCUGUUCCAUUUCUAUTT against 4930521A18Rik” is inactive: 0.0166; for “GGGAUGGAUUUAGAUAUAATT against 1110057H19Rik” it is inactive: 0.634; for GGAGGUAGAAAAGACAAAATT against Jrk it is inactive: -0.689.
On to “GGCCACAGCAUCAUCAAUGTT against 1200013A08Rik”, for which the z-score is inactive: 0.494.
The figure for GGCAGAUGCGUAUCUCAAUTT against Gpr39 is inactive: 0.479; for “CCACAUGACCUACUUUUCCTT against 4632412N22Rik” it is inactive: 0.432; for “CCCUCUGGCUAAUAAAUGATT against 4930546H06Rik” it is inactive: -1.62.
The figure for CCAAUGGGAACAGUCCUGATT against Ela2 is inactive: -1.94; for GGUUAGAGGAAAGGUUUAUTT against Htr1f it is inactive: -0.668.
As to GGCACAAGGCCUUUAGCACTT against Olfr583, the z-score is inactive: 0.124.
The figure for “GGGAGUCUUUUUGUUCCCUTT against 2700050C12Rik” is inactive: -1.21; for GGGUACAGUUAGAUUUUUUTT against Dutp it is inactive: -0.542; for GCCAAUAAUUGUCACACAUTT against Gpr97 it is inactive: 0.468.
For the sequence GGGAUUCCCAAGGAUGAAGTT against Ghrh, the z-score was inactive: 0.0542.
For GGCAUUGACGAGGAUGACCTT against Supt3h, the z-score was inactive: 0.988.
For the sequence GCCUUGUCAUAUGGGUUCCTT against Timm17b, the z-score was inactive: 0.712.
The figure for GGUUGCUGGAUGUCAUCUCTT against Hpn is inactive: 1.44; for GGGUCUGAUCACUUAUAUUTT against BC003322 it is inactive: -0.142; for GGAUGAAAGUUGUAUGUAUTT against Ctsk it is inactive: 1.65.
Regarding GGCCUGAACAAAGUUACAUTT against Slc22a7, the z-score was inactive: 2.
For GCUUCUGUCAUAAUGAUAUTT against Pramel6, the z-score was inactive: -0.657.
The figure for GGAAAACCCUGAGCAAGAGTT against Olfr916 is inactive: -1.79.
GGGUGCAAACAAAAUGAUGTT against Pgm2: the z-score was inactive: 0.505.
In the case of CGGGCACAUAAUUUACCAATT against Rfx4, the z-score is inactive: -0.644.
For the sequence “GGUACUCCUAGAACUCUACTT against 2410002F23Rik”, the z-score was inactive: -0.521.
In the case of GCAGUUAGUGUUUUUUGACTT against Card12, the z-score is inactive: 0.358.
In the case of GGCUAAAAUCUAUUUAUCGTT against Zfp312, the z-score is inactive: 0.203.
The figure for ACUCCCAUGUUGAAUCCAUTT against Olfr1202 is inactive: 1.54; for GGUUACCGCUAUCGUCAAGTT against Sufu it is inactive: -0.997; for “GGAAGGAAGAAGACAAUAATT against 1110001K21Rik” it is inactive: 1.05.
The figure for CGUUAAUUGCCCUCAAAGATT against Spon1 is inactive: 0.624.
The figure for GGCUCUUGUUGCCUUGUGUTT against Crabp1 is inactive: -1.89.
Take GGUCCUAACCGACAUGUCUTT against Vrk1: the z-score was inactive: -0.147.
For the sequence GGACAUUGUUGUUCUUGGUTT against Psma7, the z-score was inactive: -3.35.
The figure for CCUAUACGUGCACCAAUGGTT against Srpx2 is inactive: -2.05; for GCCGGAAUCCUGUGGAAUCTT against Csrp2bp it is inactive: -0.743.
The figure for GCUGGCACAAGGCAAAACCTT against Drd1a is inactive: 0.938.
“GGCUCAAACGAACAUAUCGTT against 2810429O05Rik”: the z-score was inactive: -0.789.
The figure for GGAUGAGUCCAAUCUUCUCTT against Anapc4 is inactive: -2.24; for GGACAAUUUACAAAGAUGCTT against Rnmt it is inactive: 2.65; for GGUGAAAGGUUCUUUAACCTT against BC020188 it is inactive: -0.206.
Consider GGAGGUUACAUAACAGGUGTT against Sh3d1B, for which the z-score is inactive: 0.75.
The figure for GGAAUUCAAGAAUGCACAGTT against Jarid2 is inactive: -0.315; for GGAUCACACUAGUAUUUUCTT against Sertad2 it is inactive: -0.122; for GGAAGAGUUACAGUUGAUUTT against Chc1l it is inactive: -0.0171.
For “CCAAACGAUUUAUAAUCAGTT against 2610034N24Rik”, the z-score is inactive: -2.05.
For the sequence GCCCAUUGAGUUUGAUUCATT against Itgav, the z-score was inactive: -0.677.
Regarding “GGUGAAGCUAUUUUUCUCATT against 9130012B15Rik”, the z-score is inactive: 1.23.
Take “GGUGAACAGUUGAUUUCAUTT against 6330419J24Rik”: the z-score was inactive: -1.64.
For the sequence GGUGAAUACCAGAAGUAAATT against Slc6a8, the z-score is inactive: -0.485.
With GGAAGCAGCCAAGAAGUUATT against Olfr259, the z-score was inactive: -0.402.
Turning to “GGAGAACUGCUUCCACAUGTT against 3110037K17Rik”, the z-score was inactive: -0.658.
As to GCUACAAUUGUCUAAAUCCTT against Slc25a20, the z-score was inactive: 0.515.
The figure for GGAAGAAGAAGUGUCACUATT against Wasf2 is inactive: -1.62; for CCAGAACCGUUACUUAGACTT against Bet1l it is inactive: -1.06; for GCCUCUCAACAUGAAUUAATT against LOC432988 it is inactive: 1.59.
Regarding “GGAACCACAUGGACACACUTT against D230037D09Rik”, the z-score was inactive: -0.47.
With CGAGAUGUUUAUUCAACAUTT against Tcf23, the z-score is inactive: 1.04.
As to GGCUCCACACGAUUGUUAGTT against Gne, the z-score was inactive: -1.12.
GGUUGUUGGUCUUCUGUGATT against Nme3: the z-score was inactive: -0.788.
The figure for “GGAUCUACAUGCUUCUCAGTT against 1700018B24Rik” is inactive: 0.448; for GGUGCAGAAUGCAAUGGAUTT against Ing3 it is inactive: -2.61; for CCUCCACAUUUAUUUGCUATT against Mbtd1 it is inactive: 0.311.
In the case of “GGAGGUAACGCAUGUUACATT against 4930483J18Rik”, the z-score is inactive: 0.189.
Take GGACCUCUGUGAGGAAGUGTT against Prkcz: the z-score was inactive: -0.658.
On to CCCUGAAGAAGUUUGAUACTT against AW146020, for which the z-score was inactive: 0.469.
As for GGAUCAUUGAUGUUGUCUATT against Rps8, the z-score was inactive: -2.73.
The figure for GGUUCAUCUGUACAAAAUCTT against Zfp110 is inactive: 0.767; for “GGCCUUACAGAGGAAUAUCTT against 4933439F18Rik” it is inactive: 0.184; for “GGUAGUUAGGUACCAUUUGTT against B930008A12Rik” it is inactive: -0.226.
As for GGGAAGAUUGUGCAAAUGUTT against Zfp386, the z-score is inactive: -1.13.
For the sequence GGCCCACUUAUGAUGUACATT against Eef2, the z-score is inactive: -0.272.
In the case of GGCCUUGUUUUCAUGCCUGTT against BC031140, the z-score is inactive: -0.814.
On to CCCAUUUGAAAUUAGGGUATT against AI452372, for which the z-score is inactive: -0.851.
The figure for GAGUCCUUGGGACAUUCUCTT against Olfr168 is inactive: -0.663; for “GGUUUCUACAAACAAGCGUTT against 5430411K16Rik” it is inactive: -0.822; for GCACCGGGCUGAACUUUACTT against Lhcgr it is inactive: 0.4.
For the sequence GGUUUGUGGUGAACUUUCATT against Lgals9, the z-score is inactive: -1.5.
With CGAUCAUGAAUCCUCAAACTT against Olfr828, the z-score was inactive: -0.276.
The figure for GGACUUUGAAUCAUGUGAATT against Lss is inactive: -0.294; for “GGACUUACUUCCCAUUUCGTT against 1110015E22Rik” it is inactive: -1.36; for CCCUGACACAGUAGCAUUUTT against Eef1a1 it is inactive: -3.
The figure for CCAUACACAACAUUCCAGATT against Slc39a11 is inactive: -0.214; for CGAUCGAAUCCUUAAGUACTT against Ttll1 it is inactive: -0.422; for GGAUGGUGAGAAGCUGAUCTT against Omp it is inactive: -0.552.
Take GGAAAUGAAUUUUGGAAUCTT against Pps: the z-score is inactive: -0.876.
The figure for GGACUUCCAGUACCUAAGGTT against Smpd2 is inactive: -0.694; for CGAAUCUCUGGCAAAAUGGTT against Cdc2a it is inactive: 0.982.
The figure for CCAGGCAGCUAAACUGUGUTT against Tex11 is inactive: 0.763; for GCCAGCAACCCUCUUCGUUTT against Foxo6 it is inactive: 0.732; for CCGGGAAAUUCUGUUAGCCTT against Pla2g1b it is inactive: -2.47.
For GGGACUUCAUUGCUACUAATT against BC028440, the z-score was inactive: 0.103.
With GGAUUUAUCCCAAAAUCUATT against Tmem26, the z-score is inactive: 0.759.
On to GGAAGAGAGAAUAAGUAUCTT against Robo2, for which the z-score was inactive: 0.196.
In the case of GGUUUUUACUUUGACCCUGTT against Wdr21, the z-score was inactive: -2.18.
As to GGAACCAAGCCAUGAUUUUTT against Mrgprb2, the z-score was inactive: 0.474.
CCAUACAAGAGUGACAGUUTT against Olfr810: the z-score was inactive: -1.75.
The figure for “GCGUGGUUCAGUCAGGUAUTT against 2310022M17Rik” is inactive: 0.682.
